From PubChem BioAssay AID2685 (National Center for Advancing Translational Sciences (NCATS), 2010)
Some of the results follow. The main result of the screen is listed elsewhere. These columns were measured beside it and carry no call. Compounds called inactive in the main read-out are mostly missing here. Potencies come from curve fits of mixed quality, noted in brackets.

Assay: qHTS Assay for Lipid Storage Modulators in Drosophila S3 Cells;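 as to cell number change: cells counted by Cell Tracker Red CMTPX staining in the red channel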
Settings: BODIPY lipid droplet fluorescence, 18-24 h; for cell number change: measured here: cell count max response, cells fed with added oleic acid
In short: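 Laser-scanning cytometry quantifies lipid droplet accumulation (500–530 nm total intensity; droplet/cell object ratio) in oleic acid-fed (400 uM added) Drosophila S3 cells treated with a concentration series. 20 uM Triacsin C defined 100% inhibition.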

[1] = measured here: cell number channel AC50, cells fed with added oleic acid
[2] = measured here: lipid fluorescence (Fed channel) AC50, cells fed with added oleic acid

Row | Compound | cell number change | AC50 [1] | AC50 [2]
1 | CCOC(=O)c1ccc(COC(=O)CNC(=O)CNC(=O)c2ccc(OC)cc2)o1 | -141% | 16.4 µM [falling, partial curve] | 16.4 µM [falling, partial curve]
2 | O=C(COC(=O)c1n[nH]c2ccccc12)Nc1ccc([N+](=O)[O-])cc1 | 42.2% | 11.6 µM [rising, partial curve] | 10.3 µM [rising, partial curve]
3 | CS(=O)(=O)N1Cc2ccccc2CC1C(=O)OCC(=O)Nc1ccc2ccccc2c1 (stereo not drawn) | 40.3% | 1.84 µM [rising, full curve, poor fit] | 0.461 µM [rising, full curve, poor fit]
4 | Cc1ccc(CC(=O)Nc2cc(C)ccn2)cc1 | -25.8% |  | 8.2 µM [rising, partial curve]
5 | O=C(c1ccc(Cl)cc1)C1C2C(=O)N(c3ccccc3)C(=O)C2C2CCCN21 (stereo not drawn) | 94.3% | 6.51 µM [rising, partial curve] | 
6 | CCCC1C2C(=O)N(c3ccccc3OC)C(=O)C2ON1c1ccccc1 (stereo not drawn) | 5.33% |  | 
7 | O=C(COc1coc(CN2CCc3ccccc32)cc1=O)Nc1cccc(F)c1 | 3.37% |  | 
8 | O=[N+]([O-])c1cc(C(F)(F)F)ccc1NCCOc1ccccc1 | 13.8% |  | 20.6 µM [rising, single point]
9 | N#Cc1nc(-c2cccs2)oc1NCc1ccccc1 | 17.2% |  | 29.1 µM [rising, single point]
10 | COc1cccc(CNC(=O)Cc2ccc(-n3c(=O)[nH]c4ccccc4c3=O)cc2)c1 | 16.5% |  | 
11 | N#Cc1ccc(C(=O)NCC2CCCCC2)cc1 | -22.2% |  | 
12 | Cc1cccc(N(C(=O)Cn2nnc3ccccc32)C(C(=O)NC(C)(C)C)c2ccsc2)c1 (stereo not drawn) |  |  | 0.58 µM [falling, single point]
13 | CCc1ccccc1NC(=O)CNC(=O)c1cccc(S(=O)(=O)N2CCN(Cc3ccccc3)CC2)c1 |  | 1.03 µM [rising, partial curve] | 
14 | C=CC[N+](C)(C)C/C(Cl)=C(\Cl)c1ccccc1 | -21.5% |  | 20.6 µM [falling, partial curve]
15 | COc1ccc(C)cc1-n1nnnc1SCc1cc(=O)n2cc(C)ccc2n1 |  | 2.91 µM [falling, partial curve, poor fit] | 2.91 µM [falling, full curve, poor fit]
16 | CC1CC1C(=O)OCC(=O)NC(=O)NCc1ccco1 (stereo not drawn) | -30.6% | 32.6 µM [falling, single point] | 
17 | CN(C)c1ccc(/C=C(\C#N)C(=O)NCc2ccco2)cc1 | 22.1% |  | 2.31 µM [falling, partial curve, poor fit]
18 | CCOC(=O)C1CCN(C(=O)C2(NC(=O)Nc3ccccc3Cl)CCCCC2)CC1 | -87.2% | 1.46 µM [falling, full curve] | 1.84 µM [falling, full curve]
19 | O=C1CC(Nc2ccccc2)C(=O)N1CCc1ccccc1 (stereo not drawn) |  | 1.3 µM [rising, partial curve] | 4.61 µM [rising, single point]
20 | COc1ccc(/C=C/C=C2\NC(=S)NC2=O)cc1 | 13% |  | 
21 | CC(C)n1c(SCC(=O)N2CCCC2)nc2c1c(=O)n(C)c(=O)n2C | 14.2% |  | 13 µM [rising, single point]
22 | Cc1cc(C(=O)OCC(=O)N2CCc3ccccc32)c(C)o1 | 18.9% |  | 

Row | Compound | cell number change | AC50 [1] | AC50 [2]
23 | COc1cc(CN2CCN(C(=O)CC(C)C)CC2)cc(OC)c1O | 8.61% |  | 
24 | CCC(CC)COC(=O)C(C#N)c1nc2ccccc2nc1N1CCN(CC)CC1 (stereo not drawn) | -32.7% | 0.651 µM [rising, full curve] | 0.731 µM [rising, full curve]
25 | Cc1ccccc1OCc1nc(-c2ccc(NC(=O)c3ccc4c(c3)OCO4)cc2)no1 | -66% | 6.51 µM [falling, partial curve] | 6.51 µM [falling, full curve]
26 | COc1ccc(C)cc1NC(=O)NNC(=O)c1ccoc1C | 48.6% | 9.2 µM [rising, partial curve, poor fit] | 18.4 µM [rising, partial curve, poor fit]
27 | COCCCNCCCCOc1ccc(C)cc1[N+](=O)[O-] | 2.1% |  | 16.4 µM [falling, single point]
28 | Cc1ccc(S(=O)(=O)N(C)c2ccccc2C(=O)NC2CCCC2)cc1 | -34.1% | 16.4 µM [falling, single point] | 29.1 µM [falling, single point]
29 | Cc1ccc(Cl)cc1S(=O)(=O)N1CCC(C(=O)NC2CCN(Cc3ccccc3)CC2)CC1 | 11.7% |  | 
30 | O=C(NC1CC1)c1cc(Cl)nc2ccccc12 | -16.8% |  | 3.66 µM [falling, single point]
31 | CCOC(=O)[C@H]1[C@H]2COc3cc(OC)ccc3[C@@H]2N2C(=O)CN(Cc3ccc(C)cc3)C(=O)[C@@]12C | -9.15% |  | 0.116 µM [falling, single point]
32 | Cc1csc2nc(O)c(C(=O)NC3CCCCC3C)c(=O)n12 (stereo not drawn) | -18.5% | 3.66 µM [falling, partial curve] | 
33 | O=Cc1ccccc1Oc1ccccc1 | -15% | 2.06 µM [falling, partial curve] | 18.4 µM [falling, partial curve]
34 | COc1ccc(N2C(=O)CSC2c2cccc(F)c2)c(OC)c1 (stereo not drawn) | -3.12% |  | 
35 | COc1ccc(CCNS(=O)(=O)c2cccc(S(=O)(=O)N3CCCC3)c2)cc1OC | -8.76% |  | 0.00461 µM [rising, full curve, poor fit]
36 | COc1cccc(OC)c1OCC(O)CN1CCN(c2ccccc2)CC1 (stereo not drawn) | 29.6% |  | 29.1 µM [rising, single point]
37 | Brc1ccc(CNCc2cccs2)cc1 | 39% | 0.58 µM [rising, full curve] | 
38 | CCOc1ccc(-c2nnc3ccc(SCC(=O)NCc4ccco4)nn23)cc1 | 1.15% |  | 1.46 µM [falling, full curve, poor fit]
39 | CCC(C)C(NC(=O)CCC(=O)OCC(=O)[C@@]1(O)CCC2[C@@H]3CCC4=CC(=O)C=C[C@]4(C)C3[C@@H](O)C[C@@]21C)C(=O)O (stereo partly drawn) | -21.3% |  | 0.651 µM [falling, full curve, poor fit]
40 | O=C(COC(=O)c1ccc[nH]c1=O)Nc1cc(S(=O)(=O)N2CCCCCC2)ccc1Cl |  | 2.59 µM [rising, single point] | 
41 | O=C(Nc1cc(Cl)ccc1Cl)C1CC(=O)N(c2ccccc2)C1 (stereo not drawn) | 17.9% |  | 
42 | CC[n+]1c(C)cc(C)n1-c1ccccc1 | 14.2% |  | 
43 | S=C(NCCN1CCOCC1)N1CCN(c2cccc(Cl)c2)CC1 | 35.8% |  | 
44 | COc1ccc2oc(=O)c(-c3csc(Nc4ccc(O)cc4)n3)cc2c1 | -64.1% | 29.1 µM [falling, single point] | 11.6 µM [falling, partial curve]

Nos. 9 to 10, reprinted for reference:
Row | Compound | cell number change | AC50 [1] | AC50 [2]
9 | N#Cc1nc(-c2cccs2)oc1NCc1ccccc1 | 17.2% |  | 29.1 µM [rising, single point]
10 | COc1cccc(CNC(=O)Cc2ccc(-n3c(=O)[nH]c4ccccc4c3=O)cc2)c1 | 16.5% |  | 

Exported in CSV form: entries from further up
Row,Compound,cell number change,AC50 [1],AC50 [2]
32,Cc1csc2nc(O)c(C(=O)NC3CCCCC3C)c(=O)n12 (stereo not drawn),-18.5%,"3.66 µM [falling, partial curve]",
33,O=Cc1ccccc1Oc1ccccc1,-15%,"2.06 µM [falling, partial curve]","18.4 µM [falling, partial curve]"

Next part:

Row | Compound | cell number change | AC50 [1] | AC50 [2]
45 | Cc1cc(C)c(C(=O)COC(=O)c2cc([N+](=O)[O-])ccc2NCCO)cc1C | -20% |  | 32.6 µM [falling, single point]
46 | Cc1nn(CC(=O)N2CCN(c3ccccn3)CC2)c(=O)c2cc3sccc3n12 | 12.3% |  | 
47 | O=C(Nc1ccon1)c1ccccc1Cl | -13.1% |  | 0.731 µM [falling, full curve, poor fit]
48 | O=C(NCc1ccccc1)c1cnc(Cl)c(Cl)c1 | -10.5% |  | 35.5 µM [falling, single point]
49 | O=C(c1nn2c(C(F)(F)F)cc(-c3ccco3)nc2c1Br)N1CCCc2ccccc21 |  | 0.13 µM [rising, full curve] | 0.164 µM [rising, full curve]
50 | Cc1ccc(-n2c(C)nn(CC3CC3)c2=O)cc1 | 41.8% |  | 
51 | CN(Cc1ccccc1)C(=O)CN1CCN(C(c2ccccc2)c2ccccc2)CC1 | -31.3% |  | 35.5 µM [falling, single point]
52 | O=C(CCc1ccccc1)N1CCN(S(=O)(=O)c2cccs2)CC1 | 13.9% |  | 
53 | CCOC(=O)C(=NC(C)(C)C)NNc1cc(Cl)ccc1Cl | -24.9% |  | 
54 | CCN(CC)C(=O)c1n[nH]c(=O)c2ccccc12 | -12.7% |  | 0.058 µM [falling, full curve]
55 | Cc1nc2ccccc2c2c1C(=O)N(c1ccc(C(=O)O)cc1)C2=O | -24.8% |  | 
56 | Cc1csc(NC(=O)C2CCCN2C(=O)OCC(C)C)n1 (stereo not drawn) |  |  | 0.58 µM [rising, single point]
57 | CCCc1nc(N)c(C#N)c(-c2ccco2)c1CC | -22.7% |  | 29.1 µM [falling, single point]
58 | CC(C)(C)n1nnnc1CN1CCC(NC(=O)NC2CCCCC2)CC1 | 9.06% |  | 29.1 µM [rising, single point]
59 | Cc1ccc(C(=O)Nc2nc(=O)n(C)s2)cc1 | 9.96% |  | 0.82 µM [rising, single point]
60 | Cc1cc(=O)n(C)c2ccccc12 | 22.6% |  | 14.6 µM [rising, partial curve, poor fit]
61 | CCCc1c(C)nn(-c2ncccc2[N+](=O)[O-])c1C | -32% | 29.1 µM [falling, single point] | 
62 | Cc1nc(NC(=O)c2ccc(F)cc2)nc2cc3c(cc12)OCO3 | 62.8% | 29.1 µM [rising, single point] | 29.1 µM [rising, single point]
63 | COc1ccc(NC(=O)CSc2nnc(-c3cccs3)n2C)cc1OC | 16.1% |  | 0.326 µM [rising, full curve, poor fit]
64 | O=C(COc1ccccc1)Nc1ccc(S(=O)(=O)N2CCOCC2)cc1 | 10.5% |  | 16.4 µM [falling, single point]
